In article PMC12587390, “Metabolite Identification Data in Drug Discovery, Part 1: Data Generation and Trend Analysis” (Molecular Pharmaceutics, 2025):
In brackets after ≈: the same amount, converted by molar mass.

Key:
[1] = physchem; details: pH 7.4
[2] = physchem; details: 25 °C, pH 7.4, aqueous buffer, thermodynamic from solid
[3] = tested on: dog hepatocytes; experiment: Metabolite identification in dog hepatocyte incubations; format: in vitro ADME; details: Cmpd 16 incubated for 120 min, 4 μM
Procedure: (§1) Cryopreserved, pooled primary human, dog, and rat hepatocytes were obtained from BioIVT (previously Celsis IVT). L-15 Leibovitz buffer was placed in a water bath to reach 37 °C. Cryopreserved hepatocytes were transferred from a −150 °C freezer on dry ice and immediately immersed in a preheated water bath kept at 37 °C for thawing. When only a small ice crystal could be seen, the content was emptied into a 50 mL falcon tube filled with warm buffer (maximum four vials/falcon tube). The suspension was centrifuged at room temperature for 3 min at 50 g. The supernatant was removed, the pellet was resuspended in a small volume of buffer, and the falcon tube was refilled with buffer, followed by another centrifugation to wash away any remaining storage buffer. Thereafter, the supernatant was removed, and the pellet was dissolved in a small volume of buffer and diluted to a concentration of about 3–5 million cells/mL. After counting the cells using a Casy cell counter, the suspension was diluted to 1 million viable cells/mL and kept at room temperature until use. The viability cutoff was 80%.
(§2) An aliquot of 245 μL of hepatocyte suspension was added to a round-bottomed 96-deep-well plate using a manual multipipette. The deep-well plate was preincubated for 15 min at 37 °C and 13 Hz. […]

[4] = tested on: human hepatocytes; experiment: Metabolite identification in human hepatocyte incubations; format: in vitro ADME; details: 4 μM
Procedure: as §1, §2

In the case of Cn1cc(NC(=O)C2CCCCC2C(=O)c2ccc(-c3cc[nH]n3)cc2)c(C(F)(F)F)n1 (stereo not shown) [Cmpd 16, Cn1cc(NC(=O)[C@@H]2CCCC[C@H]2C(=O)c2ccc(-c3cc[nH]n3)cc2)c(C(F)(F)F)n1], the logD [1] was 3.4, the solubility [2] was 73 µM (≈ 32.5 µg/mL) and the “% of the total MS area, Dog Hepatocytes (Mixed gender)” value [3] was 91%. For the same compound, the “Metabolites / metabolic pathways identified” value [4] was “amide hydrolysis was not detected”.
